The results in this text go back to paper PMC7352346, “Erdafitinib Resensitizes ABCB1-Overexpressing Multidrug-Resistant Cancer Cells to Cytotoxic Anticancer Drugs” (Cancers, 2020).

By UniProt entry, the sequences of proteins in these tests, tags left out.
UniProt P08183, whole entry: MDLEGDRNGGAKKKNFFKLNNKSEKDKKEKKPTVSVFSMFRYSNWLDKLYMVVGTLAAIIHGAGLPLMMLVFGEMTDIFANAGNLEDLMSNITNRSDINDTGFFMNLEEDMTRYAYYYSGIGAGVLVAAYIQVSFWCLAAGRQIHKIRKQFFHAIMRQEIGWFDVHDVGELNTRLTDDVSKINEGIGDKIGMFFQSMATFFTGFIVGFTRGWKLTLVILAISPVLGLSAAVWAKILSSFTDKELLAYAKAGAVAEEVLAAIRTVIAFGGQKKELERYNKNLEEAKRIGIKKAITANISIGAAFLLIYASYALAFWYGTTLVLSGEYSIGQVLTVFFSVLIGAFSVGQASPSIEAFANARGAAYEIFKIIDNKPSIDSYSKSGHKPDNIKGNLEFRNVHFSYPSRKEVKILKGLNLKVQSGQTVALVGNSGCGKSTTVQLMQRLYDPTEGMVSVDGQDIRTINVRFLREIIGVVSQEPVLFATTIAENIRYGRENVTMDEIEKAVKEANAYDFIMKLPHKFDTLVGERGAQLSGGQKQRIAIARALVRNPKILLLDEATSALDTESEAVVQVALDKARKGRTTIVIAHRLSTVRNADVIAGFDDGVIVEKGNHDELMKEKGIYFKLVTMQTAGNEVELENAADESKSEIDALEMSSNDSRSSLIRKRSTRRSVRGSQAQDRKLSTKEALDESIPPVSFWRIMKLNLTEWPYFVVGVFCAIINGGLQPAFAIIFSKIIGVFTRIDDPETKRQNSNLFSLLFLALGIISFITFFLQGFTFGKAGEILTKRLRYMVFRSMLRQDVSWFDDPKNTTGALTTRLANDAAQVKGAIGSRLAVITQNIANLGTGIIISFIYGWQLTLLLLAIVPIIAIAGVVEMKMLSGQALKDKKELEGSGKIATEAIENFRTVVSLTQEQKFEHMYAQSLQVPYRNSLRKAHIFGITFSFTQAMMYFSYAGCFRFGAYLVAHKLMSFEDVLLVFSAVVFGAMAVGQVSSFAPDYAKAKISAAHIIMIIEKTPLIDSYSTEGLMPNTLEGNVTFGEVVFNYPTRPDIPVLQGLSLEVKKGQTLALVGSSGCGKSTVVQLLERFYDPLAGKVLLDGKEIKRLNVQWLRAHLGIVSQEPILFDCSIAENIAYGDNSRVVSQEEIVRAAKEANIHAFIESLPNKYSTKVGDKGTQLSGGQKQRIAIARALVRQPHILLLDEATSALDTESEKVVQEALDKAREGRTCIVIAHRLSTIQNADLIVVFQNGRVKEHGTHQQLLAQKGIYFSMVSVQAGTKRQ

pEC50: −log10 of the molar value.

In the experiment the target is ABCB1 (MDR1, P-glycoprotein) (Homo sapiens, UniProt P08183). Description: biochemical.

`COc1cc(OC)cc(N(CCNC(C)C)c2ccc3ncc(-c4cnn(C)c4)nc3c2)c1` [erdafitinib] gave a pEC50 of approximately 6.46.
